PubChem BioAssay AID330 (DTP/NCI, 2004)
The list shows only some results of the screen, not a fair sample: it covers a few groups of compounds. Not every dose and run of a compound is shown. T/C: endpoint of the treated group in % of that of the vehicle group. Some entries give survivors of the animals treated and no T/C: the source files T/C as zero there, which appears to mark a toxic dose or a test without result, not a measured value. Counts of survivors are from the toxicity check (mostly the fifth day) where no day follows; animals may have died later. Schedules are NCI's codes, taken here to give the interval after Q, in days (D) or hours (H), and the number of doses after X. For survival time, this PubChem deposit counts one and a half times the control or more as active, and values a quarter to a half above the control carry no call in these data; other NCI protocols may use other cut-offs. Additions like (4×) give the number of equal values in this list. Some T/C values are followed by the survivors on the day toxicity was checked, most often the fifth; without a count or a note in brackets, all were alive then. Some doses were run more than once; the values are given in rising order. Some entries show no survivor count and are marked so; the dose need not have been tolerated. Some complexes appear as separate parts, the way the source draws them; their charges need not add up.

Test system: P388 leukemia ip, CD2F1 mice, survival T/C
Experiment: NCI In Vivo Anticancer Drug Screen. Data for tumor model P388 Leukemia (intraperitoneal) in CD2F1 (CDF1) mice
Settings: T/C endpoint: median survival time, higher T/C = longer survival
[1] = dose: 12.5 mg/kg/injection, schedule: Q04DX003 (ip), vehicle: saline with Tween-80
[2] = dose: 25.0 mg/kg/injection, schedule: Q04DX003 (ip), vehicle: saline with Tween-80
[3] = dose: 50.0 mg/kg/injection, schedule: Q04DX003 (ip), vehicle: saline with Tween-80
[4] = dose: 100.0 mg/kg/injection, schedule: Q04DX003 (ip), vehicle: saline with Tween-80
[5] = dose: 50.0 mg/kg/injection, schedule: Q01DX009 (ip), vehicle: saline
[6] = dose: 100.0 mg/kg/injection, schedule: Q01DX009 (ip), vehicle: saline
[7] = dose: 200.0 mg/kg/injection, schedule: Q01DX009 (ip), vehicle: saline
[8] = dose: 12.5 mg/kg/injection, schedule: Q01DX009 (ip), vehicle: distilled water + Tween-80
[9] = dose: 25.0 mg/kg/injection, schedule: Q01DX009 (ip), vehicle: distilled water + Tween-80
[10] = dose: 50.0 mg/kg/injection, schedule: Q01DX009 (ip), vehicle: distilled water + Tween-80
[11] = dose: 100.0 mg/kg/injection, schedule: Q01DX009 (ip), vehicle: distilled water + Tween-80
[12] = dose: 12.5 mg/kg/injection, schedule: Q01DX009 (ip), vehicle: saline with Tween-80
[13] = dose: 25.0 mg/kg/injection, schedule: Q01DX009 (ip), vehicle: saline with Tween-80
[14] = dose: 50.0 mg/kg/injection, schedule: Q01DX009 (ip), vehicle: saline with Tween-80

O=C(O)/C=C\c1ccccc1N(CCCl)CCCl
T/C (dose: 33.0 mg/kg/injection, schedule: Q04DX003 (ip), vehicle: saline): 195 % of control | T/C (dose: 50.0 mg/kg/injection, schedule: Q04DX003 (ip), vehicle: saline): 231 % of control | T/C (dose: 75.0 mg/kg/injection, schedule: Q04DX003 (ip), vehicle: saline): 90 % of control

COc1ccc(C2=CCN(c3ccc(OC)cc3)P(=O)(Cl)O2)cc1 (configuration not stated)
T/C (dose: 50.0 mg/kg/injection, schedule: Q01DX005 (ip), vehicle: Klucel (hydroxypropylcellulose) (HPC)): 103 % of control | T/C (dose: 100.0 mg/kg/injection, schedule: Q01DX005 (ip), vehicle: Klucel (hydroxypropylcellulose) (HPC)): 106 % of control | T/C (dose: 200.0 mg/kg/injection, schedule: Q01DX005 (ip), vehicle: Klucel (hydroxypropylcellulose) (HPC)): 103 % of control

O=Cc1ccc(N(CCI)CCI)cc1
T/C [1]: 120 % of control | T/C (dose: 18.75 mg/kg/injection, schedule: Q01DX009 (ip), vehicle: saline with Tween-80): 172 % of control | T/C [2]: 120 % of control | T/C (dose: 37.5 mg/kg/injection, schedule: Q01DX009 (ip), vehicle: saline with Tween-80): 236 % of control | T/C [3]: 133 % of control | T/C (dose: 75.0 mg/kg/injection, schedule: Q01DX009 (ip), vehicle: saline with Tween-80): 95 % of control | T/C [4]: 159 % of control | T/C (dose: 132.0 mg/kg/injection, schedule: Q04DX003 (ip), vehicle: saline with Tween-80): 129 % of control | T/C (dose: 200.0 mg/kg/injection, schedule: Q04DX003 (ip), vehicle: saline with Tween-80): 129 and 163 % of control | T/C (dose: 300.0 mg/kg/injection, schedule: Q04DX003 (ip), vehicle: saline with Tween-80): 133 % of control [5 of 6 alive] | T/C (dose: 400.0 mg/kg/injection, schedule: Q04DX003 (ip), vehicle: saline with Tween-80): 104 % of control

O=C1c2c([N+](=O)[O-])cc([N+](=O)[O-])c(O)c2C(=O)c2c(O)c([N+](=O)[O-])cc([N+](=O)[O-])c21
T/C (dose: 12.5 mg/kg/injection, schedule: Q01DX005 (ip), vehicle: saline with Tween-80): 99 % of control | T/C (dose: 25.0 mg/kg/injection, schedule: Q01DX005 (ip), vehicle: saline with Tween-80): 110 % of control | T/C (dose: 50.0 mg/kg/injection, schedule: Q01DX005 (ip), vehicle: saline with Tween-80): 110 % of control (2×) | T/C (dose: 100.0 mg/kg/injection, schedule: Q01DX005 (ip), vehicle: saline with Tween-80): 115 % of control | survivor count (dose: 200.0 mg/kg/injection, schedule: Q01DX005 (ip), vehicle: saline with Tween-80): 3 of 5

CC1=C(C)OP(=O)(n2ccnc2)O1
T/C [5]: 105 % of control | T/C [6]: 107 % of control | T/C [7]: 107 % of control

O=P(NC1=NCCCC1)(Oc1ccccc1)Oc1ccccc1
T/C [8]: 111 % of control | T/C [9]: 99 % of control | survivor count [10]: 3 of 6 | survivor count [11]: 2 of 6

O=C1c2cc([N+](=O)[O-])cc([N+](=O)[O-])c2-c2c1cc([N+](=O)[O-])cc2[N+](=O)[O-]
T/C [12]: 122 % of control [survivor count not shown] | T/C [1]: 115 % of control [survivor count not shown] | T/C (dose: 16.5 mg/kg/injection, schedule: Q01DX009 (ip), vehicle: saline): 108 % of control [survivor count not shown] | T/C [13]: 136 % of control [survivor count not shown] | T/C (dose: 25.0 mg/kg/injection, schedule: Q01DX009 (ip), vehicle: saline): 104 % of control [survivor count not shown] | T/C [2]: 110 % of control [survivor count not shown] | T/C (dose: 37.5 mg/kg/injection, schedule: Q01DX009 (ip), vehicle: saline): 108 % of control [survivor count not shown] | T/C [14]: 127 % of control [survivor count not shown] | T/C [3]: 100 % of control [survivor count not shown]

S=P(Cl)(Cl)Oc1ccccc1
T/C (dose: 6.25 mg/kg/injection, schedule: Q04DX003 (ip), vehicle: saline with Tween-80): 100 % of control | T/C [1]: 100 % of control | T/C [2]: 90 % of control

COP(C)(=O)OC.COP(C)(=O)OC.COP(C)(=O)OC.COP(C)(=O)OC.COP(C)(=O)OC.COP(C)(=O)OC.[Al+3].[O-][Cl+3]([O-])([O-])O
T/C [5]: 97 % of control [survivor count not shown] | T/C [6]: 88 % of control [survivor count not shown]

O=[N+]([O-])c1ccc(N/N=C/C=N/Nc2ccc([N+](=O)[O-])cc2[N+](=O)[O-])c([N+](=O)[O-])c1
T/C (dose: 50.0 mg/kg/injection, schedule: Q04DX003 (ip), vehicle: Klucel (hydroxypropylcellulose) (HPC)): 104 % of control | T/C (dose: 100.0 mg/kg/injection, schedule: Q04DX003 (ip), vehicle: Klucel (hydroxypropylcellulose) (HPC)): 103 % of control | T/C (dose: 200.0 mg/kg/injection, schedule: Q04DX003 (ip), vehicle: Klucel (hydroxypropylcellulose) (HPC)): 97 % of control | T/C (dose: 400.0 mg/kg/injection, schedule: Q04DX003 (ip), vehicle: Klucel (hydroxypropylcellulose) (HPC)): 97 % of control

Nc1ccc(S(=O)(=O)N(CCCl)CCCl)cc1
T/C (dose: 12.5 mg/kg/injection, schedule: Q01DX009 (ip), vehicle: Klucel (hydroxypropylcellulose) (HPC)): 95 [5 of 6 alive] and 108 % of control | T/C (dose: 25.0 mg/kg/injection, schedule: Q01DX009 (ip), vehicle: Klucel (hydroxypropylcellulose) (HPC)): 95 [5 of 6 alive] and 101 % of control | T/C (dose: 50.0 mg/kg/injection, schedule: Q01DX009 (ip), vehicle: Klucel (hydroxypropylcellulose) (HPC)): 95 and 127 % of control

CCOP(OCC)c1ccc(N(C)C)cc1
T/C (dose: 12.5 mg/kg/injection, schedule: Q01DX001 (ip), vehicle: Klucel (hydroxypropylcellulose) (HPC)): 95 % of control | T/C (dose: 25.0 mg/kg/injection, schedule: Q01DX001 (ip), vehicle: Klucel (hydroxypropylcellulose) (HPC)): 99 % of control | T/C (dose: 50.0 mg/kg/injection, schedule: Q01DX001 (ip), vehicle: Klucel (hydroxypropylcellulose) (HPC)): 104 % of control

CCOP(=O)(/N=C(\Nc1ccccc1)c1ccccc1)OCC
T/C (dose: 6.25 mg/kg/injection, schedule: Q01DX009 (ip), vehicle: distilled water + Tween-80): 105 % of control | T/C (dose: 6.25 mg/kg/injection, schedule: Q01DX009 (ip), vehicle: saline with Tween-80): 98 % of control | T/C [8]: 104 and 111 % of control | T/C [12]: 96 % of control | T/C [9]: 97 and 122 % of control | T/C [13]: 92 % of control | T/C [10]: 107 and 111 % of control | T/C [14]: 101 % of control | T/C [11]: 99 % of control

CC(C)OP(C)(=O)O.[V]
T/C (dose: 100.0 mg/kg/injection, schedule: Q01DX009 (ip), vehicle: Klucel (hydroxypropylcellulose) (HPC)): 87 % of control [survivor count not shown]

CCN(CC)CC[CH2][Sb]([CH3])([CH3])([Br])[Br].O=[N+]([O-])c1cc([N+](=O)[O-])c(O)c([N+](=O)[O-])c1
T/C [5]: 96 % of control [survivor count not shown] | T/C [6]: 102 % of control [survivor count not shown] | T/C [7]: 93 % of control [survivor count not shown]

CN(C)c1ccccc1.O=[N+]([O-])c1cc([N+](=O)[O-])c(O)c([N+](=O)[O-])c1
T/C [2]: 100 % of control [survivor count not shown] | T/C [3]: 107 % of control [survivor count not shown] | T/C [4]: 100 % of control [survivor count not shown]

CN(C)C(=S)SCc1c([N+](=O)[O-])cc([N+](=O)[O-])cc1[N+](=O)[O-]
T/C (dose: 100.0 mg/kg/injection, schedule: Q04DX003 (ip), vehicle: saline): 100 % of control | T/C (dose: 200.0 mg/kg/injection, schedule: Q04DX003 (ip), vehicle: saline): 102 % of control | T/C (dose: 400.0 mg/kg/injection, schedule: Q04DX003 (ip), vehicle: saline): 100 % of control
